{"source": "patent US11458433B2", "about": "“Absorbent and process for selectively removing hydrogen sulfide” (BASF SE, priority 2017, dated 2022)", "key": {"[1]": {"experiment": "Loading and stripping experiment with CO2 (loading capacity, cyclic capacity)", "type": "physicochemical", "settings": "30% by weight amine in water; for CO2 loading capacity after loading: 40° C., ambient pressure, 8 L (STP)/h CO2, about 4 h; for cyclic CO2 capacity: difference of loading after loading and after stripping; for CO2 loading capacity after stripping: stripped at 80° C. with N2 8 L (STP)/h, 60 min"}, "[2]": {"experiment": "Loading and stripping experiment with H2S (loading capacity, cyclic capacity)", "type": "physicochemical", "settings": "30% by weight amine in water; for H2S loading capacity after loading: 40° C., ambient pressure, 8 L (STP)/h H2S, about 4 h; for cyclic H2S capacity: difference of loading after loading and after stripping; for H2S loading capacity after stripping: stripped at 80° C. with N2 8 L (STP)/h, 60 min"}}, "data": [{"compound": "CC(C)(C)NCCN1CCCC1=O", "note": "[TBAEPY, 1-[2-(tert-butylamino)ethyl]pyrrolidin-2-one]", "values": [{"measurement": "CO2 loading capacity after loading", "setting": "[1]", "value": 1.02, "unit": "molCO2/molamine"}, {"measurement": "cyclic CO2 capacity", "setting": "[1]", "value": 0.89, "unit": "molCO2/molamine"}, {"measurement": "CO2 loading capacity after stripping", "setting": "[1]", "value": 0.13, "unit": "molCO2/molamine"}, {"measurement": "H2S loading capacity after loading", "setting": "[2]", "value": 0.85, "unit": "molH2S/molamine"}, {"measurement": "cyclic H2S capacity", "setting": "[2]", "value": 0.61, "unit": "molH2S/molamine"}, {"measurement": "H2S loading capacity after stripping", "setting": "[2]", "value": 0.24, "unit": "molH2S/molamine"}]}, {"compound": "CC(C)(C)NCCOCCO", "note": "[TBAEE, 2-(2-tert-butylaminoethoxy)ethanol]", "values": [{"measurement": "CO2 loading capacity after loading", "setting": "[1]", "value": 0.97, "unit": "molCO2/molamine"}, {"measurement": "cyclic CO2 capacity", "setting": "[1]", "value": 0.73, "unit": "molCO2/molamine"}, {"measurement": "CO2 loading capacity after stripping", "setting": "[1]", "value": 0.24, "unit": "molCO2/molamine"}, {"measurement": "H2S loading capacity after loading", "setting": "[2]", "value": 0.92, "unit": "molH2S/molamine"}, {"measurement": "cyclic H2S capacity", "setting": "[2]", "value": 0.67, "unit": "molH2S/molamine"}, {"measurement": "H2S loading capacity after stripping", "setting": "[2]", "value": 0.25, "unit": "molH2S/molamine"}]}]}
